Patent US9212209B2, “Screening methods for spinal muscular atrophy” (Indiana University Research and Technology Corporation, priority 2012, dated 2015)

Tested on: SMN2-luciferase reporter
Assay: SMN2-luciferase reporter assay (clonal HEK-293 SMN2-luc cells)
Assay type: cell-based, human
Experimental: The reporter cell lines were plated at 50,000 cells per well in 96-well plates and incubated overnight. Compounds were added to each well and incubated at 37° C. overnight. The final DMSO concentration was 0.1%. Luciferase activity was assayed using either STEADYGLO (PROMEGA E2510) or DUALGLO (PROMEGA E2920) luciferase using the WALLAC ENVISION multilabel reader. For detailed assay conditions see Table 2A. All data points were transformed from CPS to percent increase over basal expression in the treated control wells (DMSO or H2O as appropriate).
Plates were sealed with porous paper tape and incubated for 24 hours. […] For comparison, data points were transformed from CPS to percent activation over basal expression in the DMSO treated control wells.
For comparison, all data points are expressed as percent increase over basal luciferase expression in the control cells.

Question: How did the EC50 (Homo sapiens, HEK293, cell-based reporter, known SMN2 modulating compounds) turn out when `O=C(CCCCCCC(=O)Nc1ccccc1)NO` [SAHA, suberoylanilide hydroxamic acid] was run?
Answer: 12 µM

Question: And the Max. fold increase (cell-based reporter response to known SMN2 modulating compounds)?
Answer: 15 fold
